Data as given in publication PMC2843631.
These are yes or no findings as the source states them, for the method shown. Binding seen in cells or lysates may run through a third protein. These calls come from enrichment with a bait or labelling near it, and not all partners need be listed.

The chains behind the UniProt entries cited, without tags or fusion partners. Residues count along the entry.
UniProt P10809, residues 27-573: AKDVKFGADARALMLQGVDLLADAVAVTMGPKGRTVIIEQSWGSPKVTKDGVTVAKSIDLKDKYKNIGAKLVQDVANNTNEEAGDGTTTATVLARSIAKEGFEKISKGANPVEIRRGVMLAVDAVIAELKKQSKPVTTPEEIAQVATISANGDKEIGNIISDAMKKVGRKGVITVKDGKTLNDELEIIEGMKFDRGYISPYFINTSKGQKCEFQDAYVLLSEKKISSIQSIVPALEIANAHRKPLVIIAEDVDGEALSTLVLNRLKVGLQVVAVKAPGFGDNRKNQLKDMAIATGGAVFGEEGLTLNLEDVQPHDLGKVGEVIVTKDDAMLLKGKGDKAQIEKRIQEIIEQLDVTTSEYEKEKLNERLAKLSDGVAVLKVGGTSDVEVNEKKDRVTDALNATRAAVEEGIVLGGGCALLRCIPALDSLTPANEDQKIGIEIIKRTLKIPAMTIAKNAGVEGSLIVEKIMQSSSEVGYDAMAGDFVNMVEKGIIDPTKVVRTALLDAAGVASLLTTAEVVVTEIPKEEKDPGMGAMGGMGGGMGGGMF

Target: T1, IKKα, endogenous (human (endogenous in HeLa)) (UniProt O15111)
T1 sequence: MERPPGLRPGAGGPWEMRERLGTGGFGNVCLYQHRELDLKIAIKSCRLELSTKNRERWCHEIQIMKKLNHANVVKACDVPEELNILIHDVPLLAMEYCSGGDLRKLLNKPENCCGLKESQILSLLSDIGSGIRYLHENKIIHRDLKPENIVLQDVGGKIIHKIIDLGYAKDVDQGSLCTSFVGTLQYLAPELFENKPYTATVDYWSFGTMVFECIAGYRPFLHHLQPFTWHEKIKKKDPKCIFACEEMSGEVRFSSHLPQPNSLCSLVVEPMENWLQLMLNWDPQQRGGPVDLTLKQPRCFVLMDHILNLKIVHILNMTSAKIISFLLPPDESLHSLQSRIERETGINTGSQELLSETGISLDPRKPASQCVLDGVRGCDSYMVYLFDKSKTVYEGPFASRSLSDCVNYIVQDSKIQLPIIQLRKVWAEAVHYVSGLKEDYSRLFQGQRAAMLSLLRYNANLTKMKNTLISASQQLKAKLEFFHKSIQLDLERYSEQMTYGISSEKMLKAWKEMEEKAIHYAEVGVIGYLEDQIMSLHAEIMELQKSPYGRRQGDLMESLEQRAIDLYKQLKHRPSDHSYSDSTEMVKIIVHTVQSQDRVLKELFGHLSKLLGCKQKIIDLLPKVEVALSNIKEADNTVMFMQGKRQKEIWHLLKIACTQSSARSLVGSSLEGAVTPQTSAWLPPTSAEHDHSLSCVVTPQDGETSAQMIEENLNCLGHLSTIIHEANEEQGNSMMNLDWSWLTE
Assay: affinity purification with mass spectrometry; IKK complex precipitated from lysates of unstimulated HeLa S3 cells with anti-IKKα-conjugated agarose beads (lysis buffer A: 20 mM HEPES pH 7.5, 150 mM NaCl, 1% Triton X-100, 10% glycerol), eluted with 0.1 M glycine pH 2.5, silver-stained bands sequenced by LC-MS/MS

binding: binds
Substance: heat shock protein 60 (Hsp60), endogenous (from UniProt P10809 27-573)
